According to PubChem BioAssay AID2685 (National Center for Advancing Translational Sciences (NCATS), 2010):
Some of the results follow. The main result of the screen is listed elsewhere. These columns were measured beside it and carry no call. The list favours compounds with an active or inconclusive main result. Potencies come from curve fits of mixed quality, noted in brackets.

Assay: qHTS Assay for Lipid Storage Modulators in Drosophila S3 Cells;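 as to cell number change: cells counted by Cell Tracker Red CMTPX staining in the red channel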
Conditions: BODIPY lipid droplet fluorescence, 18-24 h; for cell number change: measured here: cell count max response, cells fed with added oleic acid
Method in brief: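 Drosophila S3 cells got compounds at several concentrations plus oleic acid (400 uM solution). Laser-scanning cytometry with 488 nm excitation read lipid droplets at 500-530 nm and cells at 575-640 nm. Percent activity was relative to 20 uM Triacsin C.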

[1] = measured here: lipid fluorescence (Fed channel) AC50, cells fed with added oleic acid
[2] = measured here: cell number channel AC50, cells fed with added oleic acid

Structure (SMILES): O=C1Nc2ccccc2C12OCCCCO2
- cell number change: 8.19%
- AC50 [1]: 0.326 µM [rising, full curve, poor fit]

Structure (SMILES): COc1ccc(C2CC(c3cccs3)=NN2C(=S)Nc2ccccc2)cc1OC (centres undefined)
- cell number change: 0.195%
- AC50 [1]: 0.366 µM [rising, single point]

Structure (SMILES): COc1ccc(-n2cc(CN(C)CCO)c(-c3cccc(F)c3)n2)cc1
- cell number change: -23.8%
- AC50 [1]: 29.1 µM [falling, partial curve, poor fit]

Structure (SMILES): Cc1cc(C)c(NC(=O)CN2CCN(c3ccccn3)CC2)c(C)c1
- cell number change: -4.67%
- AC50 [1]: 6.51 µM [rising, single point]

Structure (SMILES): CC1(C)CC(NC(=O)C2CCCCC2C(=O)O)CC(C)(C)N1 (centres undefined)
- cell number change: 4.49%
- AC50 [1]: 0.146 µM [falling, full curve, poor fit]

Structure (SMILES): Cc1ccc(S(=O)(=O)NC(=S)NC2CCCCC2)cc1
- cell number change: 33.2%
- AC50 [2]: 20.6 µM [rising, single point]
- AC50 [1]: 8.2 µM [rising, partial curve, poor fit]

Structure (SMILES): Cc1ccc(-n2nc3c(=O)n(C(C)C(=O)NCc4ccc5c(c4)OCO5)nc(C)c3c2C)cc1 (centres undefined)
- cell number change: -22.4%
- AC50 [1]: 6.51 µM [rising, single point]

Structure (SMILES): O=C(CSc1nnc(Cc2cc(=O)[nH]c(=O)[nH]2)n1-c1ccc(Cl)cc1)N1CCc2ccccc21
- cell number change: 3.35%
- AC50 [1]: 6.51 µM [rising, single point]

Structure (SMILES): COc1ccc2c(c1)c(CCN1C(=O)c3ccccc3C1=O)cn2C(=O)c1ccco1
- cell number change: -6.34%
- AC50 [1]: 29.1 µM [rising, single point]

Structure (SMILES): CCCCC(=O)Nc1nc2c(OC)ccc(OC)c2s1
- cell number change: 43.1%
- AC50 [2]: 25.9 µM [rising, single point]
- AC50 [1]: 10.3 µM [rising, partial curve, poor fit]

Structure (SMILES): Cc1ccccc1NC(=O)N1CCN(C/C=C/c2ccccc2)CC1
- cell number change: -45%

Structure (SMILES): O=C(Nc1ccc2c(c1)nc1n2CCN(Cc2ccccc2)C1)NC1CCCCC1
- cell number change: 51.9%
- AC50 [2]: 0.291 µM [rising, full curve]
- AC50 [1]: 1.64 µM [rising, partial curve]

Structure (SMILES): COC(=O)c1ccccc1NC(=O)c1cc[n+]([O-])cc1
- cell number change: 6.57%
- AC50 [1]: 4.11 µM [rising, full curve, poor fit]

Structure (SMILES): O=c1[nH]c(SCc2cccc(Cl)c2)nc2[nH]ncc12
- cell number change: -12.8%
- AC50 [2]: 0.0058 µM [falling, full curve, poor fit]

Structure (SMILES): C=CCN1C(=O)C(CC(=O)Nc2ccc(OCCC)cc2)N(CCCN2CCN(Cc3ccccc3)CC2)C1=S (centres undefined)
- cell number change: -83.6%
- AC50 [2]: 16.4 µM [falling, single point]
- AC50 [1]: 20.6 µM [falling, single point]

Structure (SMILES): Cc1ccc(S(=O)(=O)N2CCCCC2)cc1NC(=O)CSc1nnnn1C
- cell number change: 9.61%
- AC50 [1]: 8.2 µM [rising, partial curve, poor fit]

Structure (SMILES): CC(C)(C)NS(=O)(=O)c1ccc(OCC(=O)NCCC2=CCCCC2)cc1
- cell number change: -0.841%
- AC50 [1]: 0.13 µM [falling, full curve, poor fit]

Structure (SMILES): CC(C)Oc1cc(NC(=O)CS(=O)CC(=O)Nc2cccc(C(F)(F)F)c2)c(Cl)cc1Cl (centres undefined)
- cell number change: -79.2%
- AC50 [1]: 29.1 µM [falling, single point]

Structure (SMILES): CC(OC(=O)c1ccc(NC(=O)CC#N)cc1)C(=O)Nc1ccc(Oc2ccccc2)cc1 (centres undefined)
- AC50 [1]: 29.1 µM [rising, single point]

Structure (SMILES): O=C(c1n[nH]c2ccccc12)N1CCCCC1
- AC50 [1]: 0.082 µM [falling, full curve, poor fit]

Structure (SMILES): O=C(Cc1cccs1)Nc1ccc(-c2nnc(-c3ccco3)o2)cc1
- cell number change: -27%
- AC50 [1]: 0.00517 µM [rising, full curve, poor fit]

Structure (SMILES): COc1ccc(C(=O)Cn2c(C(=O)/C=C/c3ccccc3)nc3ccccc32)cc1
- cell number change: -12.4%
- AC50 [1]: 29.1 µM [falling, single point]

Structure (SMILES): Cc1ccc(OCC(=O)N/N=C\c2ccncc2)c(C)c1
- cell number change: 15.7%
- AC50 [1]: 10.3 µM [rising, partial curve]

Structure (SMILES): c1nnc(NC2=NCCCCC2)s1
- AC50 [2]: 0.058 µM [falling, full curve]
- AC50 [1]: 23.1 µM [falling, partial curve, poor fit]

Structure (SMILES): O=C(NCc1ccc(Cl)cc1)c1ccc(S(=O)(=O)N2CCCCC2)cc1
- cell number change: 37.6%
- AC50 [2]: 23.1 µM [rising, single point]
- AC50 [1]: 29.1 µM [rising, single point]

Structure (SMILES): O=C1C(=O)N(CCO)C(c2ccc(Br)cc2)/C1=C(\O)c1ccccc1 (centres undefined)
- cell number change: -2.36%

Structure (SMILES): Cc1ccc(-c2nc(N/N=C/c3cccnc3)c3ccccc3n2)cc1
- cell number change: 37.8%
- AC50 [2]: 2.91 µM [rising, full curve]
- AC50 [1]: 29.1 µM [falling, partial curve, poor fit]

Structure (SMILES): CN(C(=S)NC(=O)C1(C)CC1(Cl)Cl)c1ccccc1 (centres undefined)
- cell number change: -94%
- AC50 [2]: 23.1 µM [falling, partial curve]
- AC50 [1]: 5.8 µM [falling, partial curve]

Structure (SMILES): O=C(O)c1ccc(N=N/C(=N\Nc2ccc(C(=O)O)cc2)c2ccccc2)cc1
- cell number change: -13.6%

Structure (SMILES): CCCCCCC(=O)N/N=C1\CCCc2ccccc21
- cell number change: -34.2%
- AC50 [2]: 32.6 µM [falling, single point]

Structure (SMILES): CCOc1ccc(NC(=O)CN(C)C(=O)c2ccc(-c3ccc(C(C)=O)cc3)o2)cc1OCC
- AC50 [2]: 3.66 µM [rising, partial curve, poor fit]

Structure (SMILES): CCc1ccccc1N(CC)C(=O)C1CCN(c2ncnc3c2nc2n3CCCCC2)CC1
- cell number change: -9.85%
- AC50 [1]: 29.1 µM [falling, single point]

Structure (SMILES): NNc1nc2sc3c(c2c(=O)n1-c1ccccc1)CCCC3
- cell number change: 9.62%
- AC50 [1]: 4.11 µM [rising, partial curve, poor fit]

Structure (SMILES): O=S(=O)(c1ccc2c(c1)nc(COc1ccc(Cl)cc1)n2CC1CCCO1)N1CCOCC1 (centres undefined)
- cell number change: 0.0646%
- AC50 [1]: 0.259 µM [rising, full curve, poor fit]

Structure (SMILES): O=c1[nH]c(NCc2ccccc2)nc2c1CCCC2
- cell number change: 31.2%
- AC50 [2]: 29.1 µM [rising, single point]

Structure (SMILES): Cn1ncc(C(N)=O)c1NC(=S)NC(=O)c1ccc(Br)o1
- cell number change: 18.3%
- AC50 [2]: 0.00461 µM [rising, full curve, poor fit]
- AC50 [1]: 0.00461 µM [rising, full curve, poor fit]

Structure (SMILES): CCOc1ccc(S(=O)(=O)N(CC)CC(=O)NCc2ccncc2)cc1
- cell number change: -42.9%
- AC50 [2]: 25.9 µM [falling, single point]

Structure (SMILES): COc1ccc(Sc2nc(-c3ccccc3)ncc2OC)cc1
- cell number change: 30.9%
- AC50 [2]: 6.51 µM [rising, single point]

Structure (SMILES): CCN(CC)CCN(C(=O)c1ccc2ncsc2c1)c1nc2cc3c(cc2s1)OCO3
- cell number change: 3.88%
- AC50 [1]: 13 µM [rising, partial curve, poor fit]

Structure (SMILES): O=C(Nc1sc2c(c1C(=O)O)CCCCC2)c1cccs1
- cell number change: 57%
- AC50 [2]: 0.00651 µM [rising, full curve, poor fit]

Structure (SMILES): O=C(CN1CCN(C(=O)c2ccco2)CC1)Nc1cccc(S(=O)(=O)N2CCCC2)c1
- cell number change: -11.6%
- AC50 [1]: 0.517 µM [falling, partial curve, poor fit]

Structure (SMILES): Cc1ccc(/C=N/NC(=O)CNC(=O)c2ccc(S(=O)(=O)N(C)C)cc2)cc1
- cell number change: 12.8%

Structure (SMILES): COc1ccc(CN2CCC(c3nc4ccc(Cl)cc4[nH]3)CC2)cc1
- cell number change: 16.6%
- AC50 [1]: 0.00517 µM [falling, full curve, poor fit]

Structure (SMILES): COc1ccc(N(CC(=O)NCCSc2ccccc2)S(C)(=O)=O)cc1
- cell number change: 13.7%
- AC50 [1]: 29.1 µM [rising, single point]

Structure (SMILES): CN(C)S(=O)(=O)c1cccc(NC(=O)c2cc([N+](=O)[O-])ccc2N2CCCCC2)c1
- cell number change: 1.74%
- AC50 [1]: 7.31 µM [rising, full curve, poor fit]

Structure (SMILES): Cc1nc(N2CCOCC2)[nH]c(=O)c1CCC(C)C
- cell number change: -7.82%
- AC50 [1]: 23.1 µM [falling, single point]

Structure (SMILES): c1ccc2c(c1)C(=NC1CCCCC1)NC2=NC1CCCCC1
- cell number change: 5.98%
- AC50 [1]: 29.1 µM [falling, single point]

Structure (SMILES): CCCCCn1c(=O)[nH]c2cc(C(=O)N3CCN(Cc4ccc5c(c4)OCO5)CC3)ccc2c1=O
- cell number change: -34.6%
- AC50 [2]: 1.3 µM [falling, full curve]

Structure (SMILES): O=c1[nH]c(=O)n(Cc2ccccc2)c2nc(-c3cccs3)n(CCO)c12
- cell number change: -47%
- AC50 [2]: 14.6 µM [falling, single point]
- AC50 [1]: 16.4 µM [falling, partial curve]

Structure (SMILES): COC(=O)c1ccccc1NC(=O)c1cc(-c2ccco2)on1
- cell number change: 18.5%
- AC50 [1]: 6.51 µM [rising, single point]

Structure (SMILES): Nc1nc(CN2CCN(Cc3ccc4c(c3)OCO4)CC2)nc(Nc2ccccc2)n1
- AC50 [2]: 0.0058 µM [rising, full curve, poor fit]

Structure (SMILES): O=C(NCCc1ccccc1)c1cccc(S(=O)(=O)NCc2ccccc2)c1
- AC50 [1]: 18.4 µM [falling, single point]

Structure (SMILES): CCN(c1cccc(C)c1)c1nc2ccsc2c(=O)s1
- cell number change: -5.58%

Structure (SMILES): COc1ccc(C(=O)NCc2ccc(Cl)c(Cl)c2)cc1OC
- cell number change: 48%
- AC50 [2]: 10.3 µM [rising, partial curve, poor fit]
- AC50 [1]: 1.84 µM [rising, full curve, poor fit]

Structure (SMILES): O=C(C1CCC(=O)N(C2CCCC2)C1)N1CCC(Oc2ccccc2Cl)CC1 (centres undefined)
- cell number change: -6.45%
- AC50 [1]: 29.1 µM [falling, single point]

Structure (SMILES): O=C(Nc1nccs1)c1ccc(N2CCOCC2)c([N+](=O)[O-])c1
- cell number change: -12.1%
- AC50 [1]: 0.146 µM [falling, full curve]

Structure (SMILES): CCCOc1ccc2[nH]c(C(=O)N/N=C/c3cc(OC)c(OC)c(OC)c3)cc2c1
- cell number change: -32%
- AC50 [1]: 14.6 µM [falling, partial curve]
